From patent publication US20040219523
For part of these data: No signal at the amounts used counts as a negative. For part of these data: The exact form of at least one protein or probe is not confirmed.

What was measured:
Test in all cases: activity assay
[1] = target: lysozyme, hen egg white (Gallus gallus) (UniProt P00698); settings: purified native protein
[2] = target: ppERK2 (diphosphorylated ERK) (UniProt P28482); settings: purified recombinant protein, protein details: diphosphorylated form
[3] = tested on: ERK2 (non-phosphorylated MAP kinase ERK); settings: purified recombinant protein
[4] = allosteric cleavage sensitive to ERK concentration, label: internal 32P, dose not given here
[5] = relative ppERK dependence of cleavage, dose not given here
[6] = ERK-dependent ligation, dose not given here

Question: “GGACCUCGGCGAAAGCUAACGUCUCAUGGCUAAAUUGCCAUGUUGCUACAAAUGAUAUGACUAGAGAGGUUAAGGUGCGAGCCGAGAGGCUCGCACUG [C.lys.L1.C]” was tested. Which “functional effect of the aptamer” value ([1]; self-ligation increased by 1 uM lysozyme) did it give?
Answer: active

Question: How did the “functional effect of the aptamer” value ([1]; no ligation observed, stem length critical, dose not given here) turn out when “GGACCUCGGCGAAAGCUAACGUCUCAUGGCUAAAUUGCCAUGUUGCUACAAAUGAUAUGACUAGAGAGGUUAGCGAGAGUG [C.lys.L1.A]” was run?
Answer: not active

Question: With “GGACCUCGGCGAAAGCUAACGUCUCAUGGCUAAAUUGCCAUGUUGCUACAAAUGAUAUGACUAGAGAGGUUAGGUGCGAGAGCACUG [C.lys.L1.B]” as the sequence, how does the “functional effect of the aptamer” value ([1]; self-ligation increased by 1 uM lysozyme, also in HeLa extract) read?
Answer: active

Question: How did the “functional effect of the aptamer” value ([2]; specifically activated by ppERK, 1 uM protein, 10 mM MgCl2) turn out when “GGACUUCGGCGAAAGCCGUUCGACCACGGUCAGACGCUAGCGAAUUGGUUCCUCGAAAGGGGAAAGCGUUAUUAAGAAACCAAAAUGAUUGUCUUAGACAGGAGGUUAGGUGCGGCUUUGGUCCAAGGACAUCUCGAAU [ppERK ligase construct 33 (TK.16.118.M)]” was run?
Answer: active

Question: “GGACUUCGGCGAAAGCCGUUCGACCAGCUAAGGAGGAUUUCCGAAAGCGGCUACGGCCGCCAGCUCUUAGACAGGAGGUUAGGUGCGAGAGCACU [1-piece ligase construct 28]” was tested. Which “functional effect of the aptamer” value ([3]; switch factor and ERK modulation KD unchanged relative to 3-piece ligase, dose not given here) did it give?
Answer: active

Question: “GGGCGACCCUGAUGAGCCUUCUAAGGAGGAUUUCCGAAAGCGGCACGGUCCGCCAGACGUCGAAACGGUGAAAGCCGUAGGUUGCC [hammerhead NASM construct 1-2]” was tested. Which “functional effect of the aptamer” value [3, 4] did it give?
Answer: active

Question: With “GGGCGACCCUGAUGAGCCUUGCAGACGCUAGCGAAUUGGUUCCUCGAAAGGGGAAAGCGUUAUUAAGAAACCAAAAUGUACGUCGAAACGGUGAAAGGCCGUAGGUAGCC [ppERK hammerhead construct 12]” as the sequence, how does the “functional effect of the aptamer” value [2, 5] read?
Answer: active

Question: Which results are given for “GGGCGACCCUGAUGAGGGUCGCUAAGGAGGAUUUCCGAAAGCGGCACGGUCCGCCAGACGUCGAAACGGUGAAAGCCGUAGGUUGCC [hammerhead NASM construct 1-14]”?
Answer: functional effect of the aptamer ([2]; significant cleavage only with non-phosphorylated ERK, label: internal 32P, dose not given here): not active; functional effect of the aptamer ([3]; allosteric cleavage, dose dependent at 5-100 nM ERK, suppressed by staurosporine and iodotubercidin, label: internal 32P): active

Question: Which “functional effect of the aptamer” value [2, 5] does the source give for “GGGCGACCCUGAUGAGUCACGCAGACGCUAGCGAAUUGGUUCCUCGAAAGGGGAAAGCGUUAUUAAGAAACCAAAAUGUGUUACGAAACGGUGAAAGGCCGUAGGUAGCC [ppERK hammerhead construct 6]” here?
Answer: active

Question: Which “functional effect of the aptamer” value [2, 5] does the source give for “GGGCGACCCUGAUGAGUCACGCAGACGCUAGCGAAUUGGUUCCUCGAAAGGGGAAAGCGUUAUUAAGAAACCAAAAUGUGUUGCGAAACGGUGAAAGGCCGUAGGUAGCC [ppERK hammerhead construct 10]” here?
Answer: active

Question: Which “functional effect of the aptamer” value [3, 4] does the source give for “GGGCGACCCUGAUGAGUCUUCUAAGGAGGAUUUCCGAAAGCGGCACGGUCCGCCAGUACGUCGAAACGGUGAAAGCCGUAGGUUGCC [hammerhead NASM construct 1-13]” here?
Answer: active

Question: With “UGCACUGGACUUCGGCGAAAGCCGUUCGACCACGCUAAGGAGGAUUUCCGAAAGCGGCUACGUGCCGCCAGUGUCUUAGACAGGAGGUUAGGUGCCGUCCGACUGAUCUCGGAGUUAAACG [3-piece ligase construct 17 (clone A, DG.20.58A)]” as the sequence, how does the “functional effect of the aptamer” value [3, 6] read?
Answer: active

Question: How did the “functional effect of the aptamer” value ([3]; ERK-dependent ligation, dose dependent 0-3.2 uM, works in 10% 293 extract, inhibited by staurosporine, 10 mM MgCl2, 100 mM NaCl, 30 mM Tris pH 7.5) turn out when “UGCACUGGACUUCGGCGAAAGCCGUUCGACCAGCUAAGGAGGAUUUCCGAAAGCGGCUACGUGCCGCCAGCUCUUAGACAGGAGGUUAGGUGCCGUCCGACUGAUCUCGGAGUUAAACG [3-piece ligase construct 19 (clone E, DG.20.58E)]” was run?
Answer: active

Question: Which “functional effect of the aptamer” value [3, 6] does the source give for “UGCACUGGACUUCGGCGAAAGCCGUUCGACCAGCUAAGGAGGAUUUCCGAAAGCGGCUACGUGCCGCCAGUUCUUAGACAGGAGGUUAGGUGCCGUCCGACUGAUCUCGGAGUUAAACG [3-piece ligase construct 18 (clone B)]” here?
Answer: active
